Laboratory results from patent publication US20240424055A1 (published 2024).

The chains behind the UniProt entries cited, without tags or fusion partners. Residues count along the entry.
UniProt P01031, 19-1676 limits assumed: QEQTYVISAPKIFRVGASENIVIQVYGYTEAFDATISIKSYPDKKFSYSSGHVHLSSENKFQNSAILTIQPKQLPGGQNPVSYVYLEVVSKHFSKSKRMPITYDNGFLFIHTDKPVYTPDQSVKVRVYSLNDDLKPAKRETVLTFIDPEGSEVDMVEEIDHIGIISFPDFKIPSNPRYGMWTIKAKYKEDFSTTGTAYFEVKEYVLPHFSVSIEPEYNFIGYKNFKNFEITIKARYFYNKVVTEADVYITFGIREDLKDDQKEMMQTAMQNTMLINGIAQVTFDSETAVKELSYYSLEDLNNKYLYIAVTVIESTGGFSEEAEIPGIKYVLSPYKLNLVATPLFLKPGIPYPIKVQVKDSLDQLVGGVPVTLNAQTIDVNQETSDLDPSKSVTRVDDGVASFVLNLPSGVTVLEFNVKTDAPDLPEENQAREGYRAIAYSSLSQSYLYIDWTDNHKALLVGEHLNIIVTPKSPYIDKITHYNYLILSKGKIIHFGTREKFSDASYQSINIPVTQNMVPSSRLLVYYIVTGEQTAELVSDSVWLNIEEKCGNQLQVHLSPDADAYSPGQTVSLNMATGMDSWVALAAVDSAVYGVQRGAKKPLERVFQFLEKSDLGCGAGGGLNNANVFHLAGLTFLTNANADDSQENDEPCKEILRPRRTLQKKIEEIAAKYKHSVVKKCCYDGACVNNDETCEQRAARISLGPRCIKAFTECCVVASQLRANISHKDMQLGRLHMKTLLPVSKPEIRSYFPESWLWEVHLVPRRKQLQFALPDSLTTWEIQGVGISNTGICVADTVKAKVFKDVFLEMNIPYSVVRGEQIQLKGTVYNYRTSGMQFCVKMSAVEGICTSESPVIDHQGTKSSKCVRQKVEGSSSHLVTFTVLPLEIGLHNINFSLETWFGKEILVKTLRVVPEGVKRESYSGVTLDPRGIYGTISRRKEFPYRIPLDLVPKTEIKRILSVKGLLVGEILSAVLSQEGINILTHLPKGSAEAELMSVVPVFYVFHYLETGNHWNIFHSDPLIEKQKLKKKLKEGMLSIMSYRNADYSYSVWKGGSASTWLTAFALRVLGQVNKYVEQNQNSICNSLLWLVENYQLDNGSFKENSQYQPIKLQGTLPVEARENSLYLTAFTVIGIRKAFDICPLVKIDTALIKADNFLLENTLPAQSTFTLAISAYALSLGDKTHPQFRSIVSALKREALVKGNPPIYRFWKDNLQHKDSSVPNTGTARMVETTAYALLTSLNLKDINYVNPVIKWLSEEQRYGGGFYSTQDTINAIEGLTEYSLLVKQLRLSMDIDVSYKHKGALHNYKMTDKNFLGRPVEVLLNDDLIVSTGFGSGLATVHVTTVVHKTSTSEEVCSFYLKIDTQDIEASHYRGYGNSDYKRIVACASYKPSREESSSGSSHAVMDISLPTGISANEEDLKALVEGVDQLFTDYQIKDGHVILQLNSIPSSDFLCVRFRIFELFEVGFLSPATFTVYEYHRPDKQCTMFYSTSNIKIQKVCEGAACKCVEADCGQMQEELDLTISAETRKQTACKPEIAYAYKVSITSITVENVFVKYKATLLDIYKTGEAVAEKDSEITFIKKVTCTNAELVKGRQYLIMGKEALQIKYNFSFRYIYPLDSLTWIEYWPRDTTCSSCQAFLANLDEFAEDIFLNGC

Experiments:
human C4 = biological target: T1, human C4 (human); assay: surface plasmon resonance; reference is binding to human C5
T1 construct: Specificity control in SPR
Experimental: (§1) The specificity and affinity of binding of the C5-binding protein (73.46 mg/mL in PBS) to human C5 in vitro was determined by measuring the kinetics of its binding to human C5 as compared to its binding to human C3, C4, and human IgG using surface plasmon resonance methods. C3 and C4 are the 2 proteins most closely related to C5, sharing approximately 30% overall protein sequence identity to human C5 (Wetsel et al, 1988, “Molecular Analysis of Human Complement Component C5: Localization of the Structural Gene to Chromosome 9:” Biochemistry; Vol. 27(5): pp. 1474-1482), and IgG is the original ligand of the affibody scaffold from which the affibody portion of the C5-binding protein was engineered.

human IgG = biological target: T2, human IgG (human); assay: as above
T2 construct: Specificity control in SPR, described as the original ligand of the affibody scaffold
Experimental: as §1

[1] = biological target: T3, human complement protein C5 (human, UniProt P01031 19-1676); assay: surface plasmon resonance, kinetics
T3 construct: The mature natural protein is a two-chain (alpha/beta) product of one precursor; In the hemolysis assay and the clinical samples it is the endogenous C5 of human serum; also called human C5; complement C5
Experimental: as §1

selectivity for human C5 over C4 (fold) (human C4): ≥ 4000 fold
selectivity for human C5 over IgG (fold) (human IgG): ≥ 4000 fold
Kd [1]: ~0.38 nM
B1: C5-binding protein (designed binder)
chain: AEAKYAKEVLEAWDEIDRLPNLTIEQWLAFINKLDDDPSQSSELLSEAKKLSESQAPKVEGSLAEAKEAANAELDSYGVSDFYKRLIDKAKTVEGVEALKDAILAALP
notes: 1; also called the active agent; the study drug
